# Some of the results follow. This data set is noisy: repeats of one test often differ as much as different tests do.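 The cells were human embryonic kidney cells carrying a Renilla luciferase gene, driven by the HSV-TK promoter, on a plasmid put in briefly by transfection. This is the first-round screen of about ten thousand compounds, looking for ones that raise reporter output.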
# Test system: HEK 293FT
# Assay: log relative Renilla luciferase luminescence (reporter expression vs reference, reference not stated) (log (base not stated)); higher = higher recombinant reporter expression
# Settings: 10 µM; time after transfection 48 h
# Description: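 HEK 293FT cells transiently transfected with pRL-TK (Renilla luciferase) were treated with compounds at 10 uM and luminescence was read about 42 h later. Values are log relative Renilla luminescence (log base and reference not stated). Single-pass screen; 2080 natural products library.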
row,Structure (SMILES),log
1,C[C@@H]1[C@@H]2COC(=O)C[C@H]2C[C@@H]1O [Isoboonein],-0.0794
2,C/C(=C\C(=O)O)CC[C@@]1(O)[C@@H](C)CC[C@H]2C(C)(C)CCC[C@@]21C [9-Hydroxy-13E-labden-15-oic acid],-0.24
3,COc1cc(-c2oc3c(OC)c(OC)c(OC)c(OC)c3c(=O)c2OC)cc(OC)c1OC [Exoticin],-0.227
4,O=Cc1ccc(O)cc1 [4-Hydroxybenzaldehyde],-0.672
5,"COc1ccc(C[C@H]2COC(=O)[C@@H]2Cc2ccc(OC)c(OC)c2)cc1OC [2,3-Bis(3,4-dimethoxybenzyl)butyrolactone]",-0.217
6,C=C(C)[C@@H]1CC[C@]2(C)CC[C@]3(C)[C@@H](CC[C@@H]4[C@@]5(C)[C@@H](O)C[C@H](O)C(C)(C)[C@@H]5CC[C@]43C)[C@@H]12 [Glochidiol],-0.104
7,C=C(C)[C@H]1O[C@@H]1c1c(OC)ccc2ccc(=O)oc12 [Phebalosin],-0.0776
8,"COc1c(O)cc(O)c2c(=O)c3ccccc3n(C)c12 [1,3-Dihydroxy-4-methoxy-10-methylacridin-9(10H)-one]",-7.71e-05
9,"CC1(C(=O)O)CCCC2(C)C3CCC4CC3(CCC12)CC4C(=O)O (stereo not drawn) [ent-kauran-17,19-dioic acid]",0.27
10,CCCCCCCCCCCCCCCCCCCCCCCC(=O)OCCCc1ccc(O)c(OC)c1 [3-(4-Hydroxy-3-methoxyphenyl)propyl tetracosanoate],-0.0526
11,COc1c(O)cc2c(=O)oc3c(O)c(O[C@@H]4OC[C@@H](O)[C@H](O)[C@H]4O)cc4c(=O)oc1c2c34 [Ducheside A],0.0997
12,"COc1ccc(C[C@H]2CO[C@H](c3ccc(OC)c(OC)c3)[C@H]2COC(C)=O)cc1OC [Lariciresinol-4,4'-dimethyl ether-9-acetate]",-0.361
13,CC(C)(O[C@@H]1O[C@H](CO[C@@H]2OC[C@](O)(CO)[C@H]2O)[C@@H](O)[C@H](O)[C@H]1O)[C@H](O)COc1c2occc2cc2ccc(=O)oc12,0.154
14,"CC(O)CC1CCCCN1C (single isomer, unassigned; (-)) [(-)-N-Methylsedridine]",0.19

# Three entries out of the list, arranged by SMILES length, rising:
row,Structure (SMILES),log
8,"COc1c(O)cc(O)c2c(=O)c3ccccc3n(C)c12 [1,3-Dihydroxy-4-methoxy-10-methylacridin-9(10H)-one]",-7.71e-05
1,C[C@@H]1[C@@H]2COC(=O)C[C@H]2C[C@@H]1O [Isoboonein],-0.0794
10,CCCCCCCCCCCCCCCCCCCCCCCC(=O)OCCCc1ccc(O)c(OC)c1 [3-(4-Hydroxy-3-methoxyphenyl)propyl tetracosanoate],-0.0526

# Source: the supplement of paper PMC7024190
